Reference: patent US20150291667A1
These are yes or no findings as the source states them, for the method shown. A result given as binding can be weak or reduced; the word gives no strength. Tags and fused reporters may be left off the sequences shown.

Assays:
[1] = target: wild-type CdtB-His6 (A. actinomycetemcomitans Y4); test: differential dialysis (100 kDa membrane), western blot (FIG. 18C)
[2] = target: wild-type CdtB-His6 (A. actinomycetemcomitans Y4); test: assay not given

B1: CdtA^C149A,C178A-His6 (protein)
chain: CSSNQRMSDYSQPESQSDLAPKSSTTQFQPQPLLSKASSMPLNLLSSSKNGQVSPSEPSNFMTLMGQNGALLTVWALAKRNWLWAYPNIYSQDFGNIRNWKIEPGKHREYFRFVNQSLGTCIEAYGNGLIHDTASLDKLAQEFELLPTDSGAVVIKSVSQGRAVTYNPVSPTYYSTVTLSTCDGATEPLRDQTWYLAPPVLEATAVNHHHHHHGSGLLTKPRKE
binding [1]: binds
binding [2]: binds
